For one molecule, binding results are on record in publication PMC8266384, “A two-site flexible clamp mechanism for RET-GDNF-GFRα1 assembly reveals both conformational adaptation and strict geometric spacing” (Structure(London, England:1993), 2021).

These are yes or no findings as the source states them, for the method shown. Binding can be weak; no strength is given.

In assay [1] the target is zebrafish GFRα1a lacking domain D1 (zGFRα1a^ΔD1, zGFRα1a^151-353) (zebrafish) (UniProt Q98TT9). Briefly: crystal structure; purified zGDNF^mat.-zGFRα1a complex at 2.5 mg/ml; 100 mM Tris pH 8.0, 5 % PEG 20,000, 3.7 % acetonitrile, 100 mM NaCl; 22°C; both purified.
The target in assay [2] is zebrafish GFRα1a domains D1-D3 (zGFRα1a^D1-3) (zebrafish) (UniProt Q98TT9). Briefly: cryo-EM structure; reconstituted zRGα1a complex crosslinked by GraFix (glutaraldehyde), 0.1 mg/ml; 20 mM Tris pH 7.0, 150 mM NaCl, 1 mM CaCl2; untilted and 30° tilted datasets; both purified.

B1: zebrafish GDNF, N-terminally truncated (zGDNF^mat.) (ligand, UniProt Q98TU0 135-235, looked up)
chain: VKGQGRGCLLKEIHLNVTDLDLGYRTKEELIFRYCSGPCHDAETNYDKILNNLTHNKKLDKDTPSRTCCRPIAFDDDISFLDDSLEYHTLKKHSAKKCACV
notes: One protomer; it stands as a dimer in the complexes; also called GDNF1; not shown: Protein A, C-terminal, cleaved
B1: the binding entry in assay [1] and in assay [2] was “binds” in each case.
